Construct, isoform or probe ends are uncertain for at least one entry. For part of these data: Negatives hold for the conditions tested. Tags and fusion partners may be left off the protein sequences shown.
Each sequence was assayed on T1, FurA (Fur) (Anabaena sp. PCC 7120) (assay: EMSA). Conditions: 100 uM MnCl2; EMSA: 10 mM Bis-Tris-HCl pH 7.5, 40 mM KCl, 0.1 mg/mL BSA, 1 mM DTT, 5% glycerol (+100 uM MnCl2 for FurA/FurC; 5 ug ZnSO4 for FurB), 50-100 ng DNA in 20 uL; recombinant protein; protein details: His-tag (pET-28a); probe letters rebuilt from the primers and the genome.
T1 sequence (looked up, limits assumed): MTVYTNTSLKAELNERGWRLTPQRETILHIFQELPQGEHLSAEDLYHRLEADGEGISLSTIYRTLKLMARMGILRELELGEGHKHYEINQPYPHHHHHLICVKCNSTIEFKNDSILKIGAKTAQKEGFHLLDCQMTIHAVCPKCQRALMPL
“AAAGGCAAGCACTAAAAGTGGATAACCTGCAATTTCTTTGGTCTACGACTAGTTTGTAGTAGAACCTGCACAATTTGTTAAGGTGGAGCAAATTTACACCACTACAGTAGTGCCAAAAGAGAAAAAAATTGCATTTCCAATGGCGAATCATGGTTAAAAGTGCCGTAAAATCACTGAAATTAGTGCCTGTGAAACTCATGACCTCCTAATCTGTTGTGGTTAAACGCAATAGAGGCATTTGAGGCTAATATCAGCAGGAATTCACCCTTGATTTTTAAAGTCTCCAGTAACTTTATGCAGATGCTAAAAAGTCAAATACTGGCATGAGACAACATAATTCATCAGTTTGGAGAGAGTAAGGAAATTTTGAGCGTAATGACTGAAACTGCAACCGCGCCTTTAACTGGAAAA (double strand) [calA (alr0946) promoter]”: no binding. “GAAACCCGTCCAACGCAGTGGCTCCCCTACGTGTATTTCAAAAATCAAGTATGAGTCCTATAGTTTTTTTAAACGTTTTTACTAGCACACTCATGTGGTTTCAAAATTACCTTGTTTGCAGTTTTTATGATTTATTTTTTCCCGAAACATAAACATAAACTATCTATTTTTGATATTATTATATAAATTAAATTTTCAATAATTTAATTTGTCAATTAAAGATTTTTGATTATAGATTACAAATCTAAACAAAGCACTTCATGTATATAAATTAATTTCGACTTAAATTATTTATAAATAAGATTTAATATTAAACCAATAAGCTACTTCATGGTGAAAGAAAAAGCATAATTCCTAAATTAACACTATATGCAGC (double strand) [all1651 promoter]”: binds. “CAAGAATTATATGCAATCGCATGAGGGTTTATACTTAATTTTGTGAATTTTTGTGCCATGAGCTTAAGGGAAGAAACTGGCTATGAACATGACATATTTACGGTAATTTTACTTCACATATCAGAAAATCTAGTATTAATACTGAAATAAAAATAAAATTTTAAATGATACATGATAGAGATTAGTAAAGTCACAGGTGTTGTAATTACGTATGCTGAGGTAAAATATAACTACTAGTATTTATCAGGAATTACAAGATATTTATGGCGATGGCTCACACCTAAAAATATGGAACTTTACCTAATTCGTCATGGCATCGCTGAAGCA (double strand) [sixA (alr0221) promoter]”: binds. “TTTCATTAGTCACTTAAGATAGCAATACTATTAGAGATTATTTATAAAGTAAATATTAAGTAGGGGAGGCAAAACGCGGTGTAGATATTCTTTCCGCTTTATTACCGTTGTGTTATGGCTTCAGCCTAACGCACTGCTACATAACACGTTTCATTAAGCGCTTAAATTCATTTTTTTATGACTAATAATATCGAAATCCGTGCCTAAAACAACACCAGTTGTTACAACGGAGGAAACATCCGCAACGCACTGACTCCCCTACAGAAATTTGATTTTTACTTTATAAATAACCTCTTAGCAATCACCTTGAATTGATGAAATACTTTTTTATTATTCGACTCATCTATTTTAATTTCTATTTTAATGAATGATGAACTTCTGCACGTAATTCAACATATATATTGAGATTGCATTTTATTCATTTTTTTCAATCTGCCATTGTACTGATAA (double strand) [all4896 promoter]”: binds. “GAGATTAGCTAGTATTGCTCCTAAATATTAATGTTTTTTTGTATCAAAATTAACAAAATTTTCAATTTATTAAAATCACATCTATTTTGATGTGATTTGTGCTGTACGTATTTGCGTTGTTGTTTGATATTACATGATAAATTCTTGGTGTAAATATAAACAGTGATAGCAATGTGACATTCTGTAATATACCAAATTTATCTTGTTATTCAAAGTTAATTCCCCAGTATCGAGTCTTAAAAGTCCCTGTGGCAGAGATTAATTTTTAGATAACGACTACGTGCAACCTTAAGATATTGATAAACAAAAAAATACTCAATATGTGTGATGTGTCAGTTAGAAAAACTGTGGACGCACCGAAAAATTATTATTTATGTAACCATCTAAGAGGCTATTT (double strand) [all1804 promoter]”: binds. “GTCCTAATTGACGTATGATGCGATAGCGATTATCTACAACTTGCTTCACAGCAAGCGGTAAAGGCTCACCGCAGTGAGTACAAAAACGATTACCGCCATTATTTGCGTGTTGCTTACTGCAATAAACCTGCATGGTGCTGAAGGATAGGTAAGGGTTTTTCTAAATTACTACAACAACTGTAGTCGCATTTACGAATATTCTCTAAAGATGGGGAGTGGGAAGTCGAGGAACAGAACAGGTAAGAGAGAGGGGAAATATTATGTAAGGAAGTTGTACTGCAATGTTTCTAATGACCACTGACTTTTTTTGAATTTTGTTGGCGTAGCCTTGCCGTAGGCTATTTTGAATTCCCCGAAGGGGTTAGGTGCATTATG (double strand) [alr2411-12 promoter]”: no binding. “GAGTATCTGAATTACTTGATAGCGATTGTTCAGCAGAATAGATGTCATGGAAAGTTCAAAGTGTCCGCCCTTTCTCAATGTACATCACGATGTGGTGATAGGTTATGTTCCCGCGAATATGCAGGATATCCCATTGCTATGGCAATTTTGTTGTAGCTATACCAATTCAATTAATGATTGCAACACATCATTGGGTGAAATGAAGACGCGATTAATCGCGTATCTACAGATGGTTGATTGGTCGCATTCTTTTTTCAAATTGGTATTACTTTGAGAATTTAAATAAGGTGATACGCACCTAGAGCAAATATTTTTGCGTCAGATCTTTCCATAGTTAAGAGTCCAGAGTTAAAGGCTAGCTTGGACTGTGGACTGTGGA (double strand) [pknD (alr4368) promoter]”: binds. “CGATCGCAATTCCAAGATTGGGCAAATAAAATCACAGAACGCTTTGCTTATAACGTGCAGTTTCAAGCTATAGGAGAAGAAGACCCAGAATTTGGTTCACCGACACAAATGGCACGTTTTTGTCAATAAGTAAGGGACTGGGGAGCAGGGGGAGAAAAGAACTGTTGACTGTTGACCAATGACTAATAACTATGAAAATTACTATTCCTGAATTATCTTTAGTTGTCTTGATTGGTGCTTCTGGTGCAGGTAAATCAACATTCGCACGTAAGCACTTTCAACCGTTTGAAGTAATATCTTCTGATTTTTGTCGTGGGTTAGTTTCCAAT (double strand) [prpA (alr3731) promoter]”: no binding. “TTTTGAACAATTTGGTAGCGTGCTTGCAGTACTTTACCGATCATGTGGTGGTTCATGAGCTGGTTACTGAGTTAGTCCTTATATAAGTATTCTCTTGATTGCGTGCTGTTTCCGGAAAGACAAATTACTCTAAGCTCGACTTTATCCAAAATTAAGAACTTGGTTTTCTTTATCTGGTAAAATACCTAGCTTTTTGGCAAATACTTTTTTCACATTTATAGGTTCCCGATGCAGTTGAAAAAGTAAGACTATTGTCTTACAAAGATTTTAGCGATCGCGATCTCATTGCAAAAAAAATGAATTAAAGTCAAGTTTAAGCCCTGCTGGCTGTCTTTATCATAGGCGCTACAGTCGTGGATCTACGGGTTCACT (double strand) [pknE (alr3732) promoter]”: binds. “CTGTGTACTTATCAGTAACGGTTTCCATTTTTATGCAGTAATTTCACAATTTTTTAGCAGCCGGCCGTTTCTATAAGCTTCTTACACCACCAAATATGAAAAAGGGAATAGACCGAGGGATGAGAGGTTAATATTTTTTACTGAAAAGTGTTGCCTGACCTACAAAATTGGGAACTATGATTTATACACTACCCCTATGAGTAGAGTCGGTCAAGCAAGTAATAGCTTAATATTTTGGTATAACTATTAACTTAATAATCGCCTCCGGGTTATTGTCTATACATTTTTACTGGAAGTACAGTAGTTTGTGGATGAGGACTATAAATTAGGCTAAACCAGGAATAGAGCCGGATGACGATGGCTGAACTACAGATTACACTGTGTGTAATGTCTATCGCTCGTTGCTTTTAGCAACACTTAAATAAATTCTTAAAAGTCTTAATCCTGTTATATCAAAAATTACCTATGTCATTGCAACAGCGTAATTTTGG (double strand) [cyaB2 (all1904) promoter]”: binds. “TAGTTATCTATACTTAATTCCTCGAAATATAAAATATTTATAATTATTAATTAATAAATTATAAAAAAATCTTAAATCACAAGAAATAAATTGAAAATCAAAAATTCAATTAATATTCTTAGGCTCTAAATACCTGAGTAAATACAGTGATTGTGTGGCTATAATATAAAATTTTCAGTATTTTTACTGTTTAAAGAATAAAATATAAAAACTAGAGATAGGTAACAATAGTCCATCTTTATATGGTTTTCATCTATCTTAAGTAATGTATTAAGATGACATTAAAATTACTGGGTAATATTATATTTAGAGTTAAGACTATATCAGTATATGTAAGGGTCTCTTGTTTCCAGAGACAATATATTCATGAATCGGCAGAATATCAGTAATTATTAGCTAGAAAAAAGGCAAAAAATACAGCCATGACTATGACAATTC (double strand) [all2416 promoter]”: no binding. “GGCTTACATCGTAGCCAGCCATCTCTAGGTTGACAGCAACAAGTTCTGAAATCGCTGGGTCATCGTCTATTACAAGAATCCTTGGCATTCTTAAAAAATTATTACTACTTATTAAGGATAAATAAGAACCTTTGGTAGATACAAAGATTTCTGTCTTGATTATAAAAAAGATTTTAAATCTAACATAAACCTTAAAACTACTAGTATGAAGAAAACAAAACTAAAATTACATTAAATTCGCAGTATGATATGTTTCCCTCCCTACAATCCGCCTGTGTTTCTGAGAAATGGTGTTGTTACAACTGTTTACACTACTTTGTGGGG (double strand) [rpaA (all0129) promoter]”: binds. “CATTTTGTTAGTTGTCAATTGTCAGTTGTCAGTTGTTTTTTCATTACCAATGACTAATGACCAATGACTAAGGATCAGTTTTACTTATCATTTTTCTCCTTAACAATCAAGCCGACTAAGGAGACAACTTTTTACTCGACTTTAGAAAACTTAAATAAATATAGTTTAGCAGTGATTGATTAACTATATATAGTTATCCCGATTATCAAAATTAAATTGTCTTGCAAATATTGGGAATTGTGCAACAATTTTGCTTATGAGTGTAATATACTTGGCTAGGCTGAGATAAAAACTAAAGGATATTGTTCCTATTAGCTCAACGTCAGCTAAAATAAAATCGATTCAACTACTTAAACCCCTGATTTTTGACCTAAGTTGATGCCTAAACAG (double strand) [calB (all2080) promoter]”: binds.

Each sequence was assayed against T2, FurC (PerR) (Anabaena sp. PCC 7120) (UniProt A0ACD7RPQ8) (assay: EMSA). Conditions: 100 uM MnCl2; EMSA: 10 mM Bis-Tris-HCl pH 7.5, 40 mM KCl, 0.1 mg/mL BSA, 1 mM DTT, 5% glycerol (+100 uM MnCl2 for FurA/FurC; 5 ug ZnSO4 for FurB), 50-100 ng DNA in 20 uL; recombinant protein; protein details: His-tag (pET-28a); probe letters rebuilt from the primers and the genome.
T2 sequence (looked up, limits assumed): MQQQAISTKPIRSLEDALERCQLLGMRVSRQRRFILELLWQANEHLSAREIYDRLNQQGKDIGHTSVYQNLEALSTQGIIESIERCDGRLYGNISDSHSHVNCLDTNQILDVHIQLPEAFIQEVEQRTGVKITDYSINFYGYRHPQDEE
“GAAACCCGTCCAACGCAGTGGCTCCCCTACGTGTATTTCAAAAATCAAGTATGAGTCCTATAGTTTTTTTAAACGTTTTTACTAGCACACTCATGTGGTTTCAAAATTACCTTGTTTGCAGTTTTTATGATTTATTTTTTCCCGAAACATAAACATAAACTATCTATTTTTGATATTATTATATAAATTAAATTTTCAATAATTTAATTTGTCAATTAAAGATTTTTGATTATAGATTACAAATCTAAACAAAGCACTTCATGTATATAAATTAATTTCGACTTAAATTATTTATAAATAAGATTTAATATTAAACCAATAAGCTACTTCATGGTGAAAGAAAAAGCATAATTCCTAAATTAACACTATATGCAGC (double strand) [all1651 promoter]”: binds. “TTTTGAACAATTTGGTAGCGTGCTTGCAGTACTTTACCGATCATGTGGTGGTTCATGAGCTGGTTACTGAGTTAGTCCTTATATAAGTATTCTCTTGATTGCGTGCTGTTTCCGGAAAGACAAATTACTCTAAGCTCGACTTTATCCAAAATTAAGAACTTGGTTTTCTTTATCTGGTAAAATACCTAGCTTTTTGGCAAATACTTTTTTCACATTTATAGGTTCCCGATGCAGTTGAAAAAGTAAGACTATTGTCTTACAAAGATTTTAGCGATCGCGATCTCATTGCAAAAAAAATGAATTAAAGTCAAGTTTAAGCCCTGCTGGCTGTCTTTATCATAGGCGCTACAGTCGTGGATCTACGGGTTCACT (double strand) [pknE (alr3732) promoter]”: binds.

Reference: paper PMC12282138
